In the experiment the target is Runt-related transcription factor 1 (RUNX1) (human (endogenous in F3-Caco-2)) (UniProt Q01196). Description: co-IP; F3 cells lysed in NP-40 buffer with PMSF; lysate pre-cleared with IgG and Protein A/G magnetic beads; 2-4 ug anti-RUNX1 or anti-MUC13 (IgG as control) overnight at 4°C; beads washed five times with lysis buffer; Western blot.

The chains behind the UniProt entries cited, without tags or fusion partners.
UniProt Q01196: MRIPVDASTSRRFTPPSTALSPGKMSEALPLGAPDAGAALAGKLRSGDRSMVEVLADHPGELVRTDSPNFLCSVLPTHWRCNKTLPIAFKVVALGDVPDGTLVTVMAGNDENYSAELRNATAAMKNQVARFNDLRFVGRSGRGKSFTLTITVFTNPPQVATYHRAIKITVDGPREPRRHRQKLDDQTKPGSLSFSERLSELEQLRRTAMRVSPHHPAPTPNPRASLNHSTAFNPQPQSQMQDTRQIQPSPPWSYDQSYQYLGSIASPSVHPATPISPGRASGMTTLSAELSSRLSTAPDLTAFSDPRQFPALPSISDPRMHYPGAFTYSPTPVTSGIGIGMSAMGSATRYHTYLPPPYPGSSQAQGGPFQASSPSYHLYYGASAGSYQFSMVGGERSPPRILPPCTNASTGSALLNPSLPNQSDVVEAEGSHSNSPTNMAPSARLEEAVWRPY

No constants are given. Whether binding was seen depends on the method and setting. Binding seen in cells or lysates may run through a third protein. Some results given as binding are weak or reduced against the parent protein; the word gives no strength.

The results in this text go back to paper PMC11414392.

B1: Mucin 13 (MUC13) (protein, UniProt Q9H3R2 19-512)
chain: TNQGNSADAVTTTETATSGPTVAAADTTETNFPETASTTANTPSFPTATSPAPPIISTHSSSTIPTPAPPIISTHSSSTIPIPTAADSESTTNVNSLATSDIITASSPNDGLITMVPSETQSNNEMSPTTEDNQSSGPPTGTALLETSTLNSTGPSNPCQDDPCADNSLCVKLHNTSFCLCLEGYYYNSSTCKKGKVFPGKISVTVSETFDPEEKHSMAYQDLHSEITSLFKDVFGTSVYGQTVILTVSTSLSPRSEMRADDKFVNVTIVTILAETTSDNEKTVTEKINKAIRSSSSNFLNYDLTLRCDYYGCNQTADDCLNGLACDCKSDLQRPNPQSPFCVASSLKCPDACNAQHKQCLIKKSGGAPECACVPGYQEDANGNCQKCAFGYSGLDCKDKFQLILTIVGTIAGIVILSMIIALIVTARSNNKTKHIEEENLIDEDFQNLKLRSTGFTNLGAEGSVFPKVRITASRDSQMQNPYSRHSSMPRPDY
On to B1, for which the binding entry is “binds”.
